From paper PMC9938590
Results are given in words; binding and its absence hold for the method and conditions named. Binding seen in cells or lysates may run through a third protein. A yes stands for co-enrichment or nearness to the bait. Other partners may have been found. For part of these data: A no says only that the protein was not detected with the bait. For part of these data: Tags and fused reporters may be left off the sequences shown.

Chains of the proteins cited; added tags and fusions are not shown.
UniProt Q9VMJ7: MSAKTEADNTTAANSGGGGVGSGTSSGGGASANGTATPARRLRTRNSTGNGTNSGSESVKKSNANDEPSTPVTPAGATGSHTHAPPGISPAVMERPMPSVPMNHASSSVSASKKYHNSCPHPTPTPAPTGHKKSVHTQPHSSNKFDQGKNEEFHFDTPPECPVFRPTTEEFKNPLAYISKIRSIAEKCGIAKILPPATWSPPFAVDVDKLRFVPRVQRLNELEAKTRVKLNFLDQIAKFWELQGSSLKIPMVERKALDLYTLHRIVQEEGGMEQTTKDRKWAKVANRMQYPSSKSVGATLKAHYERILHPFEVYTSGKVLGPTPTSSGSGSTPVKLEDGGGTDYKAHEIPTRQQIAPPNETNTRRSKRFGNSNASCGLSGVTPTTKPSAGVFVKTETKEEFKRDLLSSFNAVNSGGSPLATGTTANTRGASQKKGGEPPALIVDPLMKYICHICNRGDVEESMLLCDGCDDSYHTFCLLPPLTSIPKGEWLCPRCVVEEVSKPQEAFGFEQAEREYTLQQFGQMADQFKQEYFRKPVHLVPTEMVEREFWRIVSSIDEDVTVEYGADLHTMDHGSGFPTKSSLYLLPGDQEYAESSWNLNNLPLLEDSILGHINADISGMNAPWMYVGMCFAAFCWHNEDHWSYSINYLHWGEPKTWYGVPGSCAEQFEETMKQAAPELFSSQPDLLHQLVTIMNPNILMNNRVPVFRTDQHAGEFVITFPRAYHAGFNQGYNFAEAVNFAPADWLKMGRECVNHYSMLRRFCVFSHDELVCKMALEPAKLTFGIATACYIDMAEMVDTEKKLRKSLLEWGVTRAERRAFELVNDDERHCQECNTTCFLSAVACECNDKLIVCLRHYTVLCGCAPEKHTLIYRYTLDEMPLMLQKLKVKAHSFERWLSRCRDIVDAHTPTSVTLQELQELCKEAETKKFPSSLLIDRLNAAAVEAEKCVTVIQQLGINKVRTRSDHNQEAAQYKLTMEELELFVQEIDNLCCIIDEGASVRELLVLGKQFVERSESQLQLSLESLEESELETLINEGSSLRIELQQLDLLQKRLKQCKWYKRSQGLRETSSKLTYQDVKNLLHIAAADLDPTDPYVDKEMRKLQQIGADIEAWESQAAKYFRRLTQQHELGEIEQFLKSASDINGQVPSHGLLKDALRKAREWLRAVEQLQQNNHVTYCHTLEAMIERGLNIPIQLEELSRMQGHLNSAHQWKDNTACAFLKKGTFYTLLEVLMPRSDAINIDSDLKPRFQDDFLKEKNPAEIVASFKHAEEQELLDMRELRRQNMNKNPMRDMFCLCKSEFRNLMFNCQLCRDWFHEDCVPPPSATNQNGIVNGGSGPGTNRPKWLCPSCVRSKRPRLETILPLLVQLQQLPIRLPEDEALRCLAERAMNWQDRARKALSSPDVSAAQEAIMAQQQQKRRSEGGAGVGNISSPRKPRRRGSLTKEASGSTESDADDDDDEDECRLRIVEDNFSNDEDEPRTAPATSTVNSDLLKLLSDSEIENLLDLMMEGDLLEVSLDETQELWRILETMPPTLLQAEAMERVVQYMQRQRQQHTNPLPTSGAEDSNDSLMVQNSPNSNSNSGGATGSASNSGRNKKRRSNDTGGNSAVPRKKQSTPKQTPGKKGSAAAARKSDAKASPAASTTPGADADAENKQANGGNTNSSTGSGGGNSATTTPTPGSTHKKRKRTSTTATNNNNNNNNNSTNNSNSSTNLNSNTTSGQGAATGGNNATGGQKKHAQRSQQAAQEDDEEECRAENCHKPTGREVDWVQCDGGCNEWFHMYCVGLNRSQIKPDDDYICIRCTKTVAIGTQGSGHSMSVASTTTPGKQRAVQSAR
UniProt O97159: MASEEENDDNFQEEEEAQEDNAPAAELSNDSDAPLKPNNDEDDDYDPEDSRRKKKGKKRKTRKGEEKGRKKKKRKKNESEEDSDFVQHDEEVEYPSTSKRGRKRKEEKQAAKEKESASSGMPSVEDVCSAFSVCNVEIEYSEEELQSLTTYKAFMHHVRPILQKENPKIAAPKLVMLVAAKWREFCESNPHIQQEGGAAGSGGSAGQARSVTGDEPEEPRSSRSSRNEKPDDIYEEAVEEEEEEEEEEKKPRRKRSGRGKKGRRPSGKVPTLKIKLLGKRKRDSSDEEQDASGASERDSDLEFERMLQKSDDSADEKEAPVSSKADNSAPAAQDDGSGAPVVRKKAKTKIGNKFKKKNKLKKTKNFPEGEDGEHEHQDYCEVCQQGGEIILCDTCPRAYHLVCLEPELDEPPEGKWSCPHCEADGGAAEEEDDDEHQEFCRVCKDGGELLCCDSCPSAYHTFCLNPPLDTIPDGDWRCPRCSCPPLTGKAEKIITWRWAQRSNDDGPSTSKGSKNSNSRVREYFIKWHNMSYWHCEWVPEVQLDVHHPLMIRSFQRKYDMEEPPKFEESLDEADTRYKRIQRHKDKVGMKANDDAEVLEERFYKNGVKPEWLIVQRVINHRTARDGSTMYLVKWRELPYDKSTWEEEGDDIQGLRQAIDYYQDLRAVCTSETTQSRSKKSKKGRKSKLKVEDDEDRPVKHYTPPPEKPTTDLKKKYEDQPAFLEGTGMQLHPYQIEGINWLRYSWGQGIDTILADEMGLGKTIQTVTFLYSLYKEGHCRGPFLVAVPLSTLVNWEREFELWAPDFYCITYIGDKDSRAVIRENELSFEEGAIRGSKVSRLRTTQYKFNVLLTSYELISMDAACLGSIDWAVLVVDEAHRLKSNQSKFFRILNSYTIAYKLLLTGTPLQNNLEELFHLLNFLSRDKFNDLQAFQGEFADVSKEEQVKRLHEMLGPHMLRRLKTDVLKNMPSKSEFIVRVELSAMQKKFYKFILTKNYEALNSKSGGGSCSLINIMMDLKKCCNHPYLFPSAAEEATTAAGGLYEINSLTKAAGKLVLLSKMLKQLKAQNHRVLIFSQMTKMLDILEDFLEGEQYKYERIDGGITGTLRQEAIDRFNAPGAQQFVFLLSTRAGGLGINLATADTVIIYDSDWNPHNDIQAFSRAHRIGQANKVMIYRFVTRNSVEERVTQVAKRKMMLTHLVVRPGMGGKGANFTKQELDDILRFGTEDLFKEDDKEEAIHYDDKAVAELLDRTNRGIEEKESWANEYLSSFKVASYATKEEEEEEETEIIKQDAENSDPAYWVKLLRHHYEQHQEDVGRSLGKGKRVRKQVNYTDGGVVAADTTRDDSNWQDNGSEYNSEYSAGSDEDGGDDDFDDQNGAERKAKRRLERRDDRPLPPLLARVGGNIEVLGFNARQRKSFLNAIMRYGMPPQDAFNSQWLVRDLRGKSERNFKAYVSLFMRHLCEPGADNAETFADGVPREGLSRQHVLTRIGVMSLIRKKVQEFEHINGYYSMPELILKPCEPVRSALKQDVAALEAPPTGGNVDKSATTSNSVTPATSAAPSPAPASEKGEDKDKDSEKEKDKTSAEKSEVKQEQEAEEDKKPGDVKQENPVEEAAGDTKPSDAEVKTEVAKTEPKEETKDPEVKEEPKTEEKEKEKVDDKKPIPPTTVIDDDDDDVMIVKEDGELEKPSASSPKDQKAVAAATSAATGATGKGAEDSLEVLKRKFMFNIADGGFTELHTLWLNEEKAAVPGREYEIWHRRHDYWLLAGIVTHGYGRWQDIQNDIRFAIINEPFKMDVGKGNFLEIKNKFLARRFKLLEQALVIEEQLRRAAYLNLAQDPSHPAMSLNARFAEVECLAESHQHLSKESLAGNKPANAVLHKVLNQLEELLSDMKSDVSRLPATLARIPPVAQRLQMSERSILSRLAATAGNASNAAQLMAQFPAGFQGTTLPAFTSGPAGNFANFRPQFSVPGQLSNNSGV
UniProt Q8IRW8: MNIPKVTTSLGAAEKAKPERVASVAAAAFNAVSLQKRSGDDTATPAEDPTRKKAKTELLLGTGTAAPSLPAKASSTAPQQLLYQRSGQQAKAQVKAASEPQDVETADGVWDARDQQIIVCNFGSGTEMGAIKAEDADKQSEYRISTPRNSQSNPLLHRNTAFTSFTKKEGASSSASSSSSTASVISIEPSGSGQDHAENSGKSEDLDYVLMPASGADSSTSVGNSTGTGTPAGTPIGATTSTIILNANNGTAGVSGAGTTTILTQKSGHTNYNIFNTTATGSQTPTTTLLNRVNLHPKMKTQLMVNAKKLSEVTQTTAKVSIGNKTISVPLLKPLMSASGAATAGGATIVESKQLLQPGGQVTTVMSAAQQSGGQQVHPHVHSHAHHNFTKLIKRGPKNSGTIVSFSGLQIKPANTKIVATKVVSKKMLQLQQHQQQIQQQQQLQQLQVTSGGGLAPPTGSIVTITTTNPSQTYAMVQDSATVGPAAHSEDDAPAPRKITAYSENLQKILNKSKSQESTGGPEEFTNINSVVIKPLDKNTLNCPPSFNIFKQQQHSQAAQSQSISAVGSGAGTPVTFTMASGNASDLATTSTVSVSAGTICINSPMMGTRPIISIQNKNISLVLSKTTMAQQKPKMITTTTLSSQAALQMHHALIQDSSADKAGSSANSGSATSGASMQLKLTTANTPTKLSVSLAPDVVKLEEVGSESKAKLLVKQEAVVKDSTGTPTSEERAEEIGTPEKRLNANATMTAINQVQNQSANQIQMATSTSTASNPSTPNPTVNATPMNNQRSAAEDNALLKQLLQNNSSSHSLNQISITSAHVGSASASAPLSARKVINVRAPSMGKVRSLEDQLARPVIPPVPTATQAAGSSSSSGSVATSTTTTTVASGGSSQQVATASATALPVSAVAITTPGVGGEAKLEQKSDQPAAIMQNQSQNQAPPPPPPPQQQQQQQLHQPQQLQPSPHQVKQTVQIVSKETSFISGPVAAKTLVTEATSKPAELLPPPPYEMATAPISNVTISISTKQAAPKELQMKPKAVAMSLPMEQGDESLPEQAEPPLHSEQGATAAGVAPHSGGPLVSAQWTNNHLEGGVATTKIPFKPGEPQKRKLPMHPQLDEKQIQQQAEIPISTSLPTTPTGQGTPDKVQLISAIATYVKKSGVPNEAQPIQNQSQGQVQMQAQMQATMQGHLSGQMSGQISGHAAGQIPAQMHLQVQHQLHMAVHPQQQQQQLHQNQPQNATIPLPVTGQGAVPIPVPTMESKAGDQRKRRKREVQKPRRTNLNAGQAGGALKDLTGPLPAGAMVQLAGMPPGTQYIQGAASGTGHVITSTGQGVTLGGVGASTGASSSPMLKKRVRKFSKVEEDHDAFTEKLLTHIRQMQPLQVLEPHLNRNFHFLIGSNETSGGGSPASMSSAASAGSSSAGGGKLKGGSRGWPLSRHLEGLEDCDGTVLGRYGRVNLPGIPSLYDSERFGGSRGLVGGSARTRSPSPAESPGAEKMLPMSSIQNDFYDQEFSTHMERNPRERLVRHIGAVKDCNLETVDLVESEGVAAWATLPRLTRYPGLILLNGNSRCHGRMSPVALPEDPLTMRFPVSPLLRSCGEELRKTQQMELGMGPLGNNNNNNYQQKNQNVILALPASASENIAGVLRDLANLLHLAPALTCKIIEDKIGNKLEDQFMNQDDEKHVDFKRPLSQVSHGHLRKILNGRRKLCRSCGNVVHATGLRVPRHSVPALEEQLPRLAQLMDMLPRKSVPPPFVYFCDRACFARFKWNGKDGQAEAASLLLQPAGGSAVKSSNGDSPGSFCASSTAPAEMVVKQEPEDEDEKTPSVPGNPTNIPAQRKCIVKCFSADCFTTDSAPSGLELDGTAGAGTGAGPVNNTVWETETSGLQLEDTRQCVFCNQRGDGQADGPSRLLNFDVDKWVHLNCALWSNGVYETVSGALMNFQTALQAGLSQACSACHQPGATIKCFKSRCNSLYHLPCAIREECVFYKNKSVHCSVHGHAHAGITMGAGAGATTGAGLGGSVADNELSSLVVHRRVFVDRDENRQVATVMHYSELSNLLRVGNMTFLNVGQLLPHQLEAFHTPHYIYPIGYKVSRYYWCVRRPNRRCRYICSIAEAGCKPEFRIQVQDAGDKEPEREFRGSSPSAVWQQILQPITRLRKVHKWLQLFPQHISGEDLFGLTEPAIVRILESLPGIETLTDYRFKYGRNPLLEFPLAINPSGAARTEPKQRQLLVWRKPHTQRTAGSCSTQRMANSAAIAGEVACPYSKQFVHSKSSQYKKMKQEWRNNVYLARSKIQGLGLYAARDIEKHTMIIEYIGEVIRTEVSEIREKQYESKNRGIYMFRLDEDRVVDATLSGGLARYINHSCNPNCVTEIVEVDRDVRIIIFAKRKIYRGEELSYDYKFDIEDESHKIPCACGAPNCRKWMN

B1: TFIID subunit Taf4 (protein, UniProt P47825 1-921)
chain: MNTSQTAAGNRITFTSQPLPNGTISIAGNPGAVISTAQLPNTTTIKTIQAGIGGQHQGLQQVHHVQQQQQSQQQQQQQQQTQSAGQPLLNSMLPAGVVVGMRQQAPSQQQQKNVPTNPLSRVVINSHMAGVRPQSPSITLSTLNTGQTPALLVKTDNGFQLLRVGTTTGPPTVTQTITNTSNNSNTTSTTNHPTTTQIRLQTVPAAASMTNTTATSNIIVNSVASSGYANSSQPPHLTQLNAQAPQLPQITQIQTIPAQQSQQQQVNNVSSAGGTATAVSSTTAATTTQQGNTKEKCRKFLANLIELSTREPKPVEKNVRTLIQELVNANVEPEEFCDRLERLLNASPQPCLIGFLKKSLPLLRQALYTKELVIEGIKPPPQHVLGLAGLSQQLPKIQAQIRPIGPSQTTTIGQTQVRMITPNALGTPRPTIGHTTISKQPPNIRLPTAPRLVNTGGIRTQIPSLQVPGQANIVQIRGPQHAQLQRTGSVQIRATTRPPNSVPTANKLTAVKVGQTQIKAITPSLHPPSLAAISGGPPPTPTLSVLSTLNSASTTTLPIPSLPTVHLPPEALRAREQMQNSLNHNSNHFDAKLVEIKAPSLHPPHMERINASLTPIGAKTMARPPPAINKAIGKKKRDAMEMDAKLNTSSGGAASAANSFFQQSSMSSMYGDDDINDVAAMGGVNLAEESQRILGCTENIGTQIRSCKDEVFLNLPSLQARIRAITSEAGLDEPSQDVAVLISHACQERLKNIVEKLAVIAEHRIDVIKLDPRYEPAKDVRGQIKFLEELDKAEQKRHEELEREMLLRAAKSRSRVEDPEQAKMKARAKEMQRAEMEELRQRDANLTALQAIGPRKKLKLDGETVSSGAGSSGGGVLSSSGSAPTTLRPRIKRVNLRDMLFYMEQEREFCRSSMLFKTYLK
B2: transcription factor Myc (protein, UniProt Q9W4S7 1-717)
chain: MALYRSDPYSIMDDQLFSNISIFDMDNDLYDMDKLLSSSTIQSDLEKIEDMESVFQDYDLEEDMKPEIRNIDCMWPAMSSCLTSGNGNGIESGNSAASSYSETGAVSLAMVSGSTNLYSAYQRSQTTDNTQSNQQHVVNSAENMPVIIKKELADLDYTVCQKRLRLSGGDKKSQIQDEVHLIPPGGSLLRKRNNQDIIRKSGELSGSDSIKYQRPDTPHSLTDEVAASEFRHNVDLRACVMGSNNISLTGNDSDVNYIKQISRELQNTGKDPLPVRYIPPINDVLDVLNQHSNSTGGQQQLNQQQLDEQQQAIDIATGRNTVDSPPTTGSDSDSDDGEPLNFDLRHHRTSKSGSNASITTNNNNSNNKNNKLKNNSNGMLHMMHITDHSYTRCNDMVDDGPNLETPSDSDEEIDVVSYTDKKLPTNPSCHLMGALQFQMAHKISIDHMKQKPRYNNFNLPYTPASSSPVKSVANSRYPSPSSTPYQNCSSASPSYSPLSVDSSNVSSSSSSSSSQSSFTTSSSNKGRKRSSLKDPGLLISSSSVYLPGVNNKVTHSSMMSKKSRGKKVVGTSSGNTSPISSGQDVDAMDRNWQRRSGGIATSTSSNSSVHRKDFVLGFDEADTIEKRNQHNDMERQRRIGLKNLFEALKKQIPTIRDKERAPKVNILREAAKLCIQLTQEEKELSMQRQLLSLQLKQRQDTLASYQMELNESRSVSG
B3: Mediator complex subunit MED1 (protein, UniProt Q9VP05 1-1475)
chain: MSGSNAKSSGTGFGSHIPSIEEKNKQIQQETMMEKLRAKYRNKPKSYEEIKKSVRMYFIEKHYPLDPLCKATLQSALDKLQHYIKVTSRHGLVERLESLSRQLGLKFMEDQQLLFISTDMFYVEILLDAAGSLSDVKVHHECKIEQQSSELVACLKSGDFADFTVQLEGLSSIYQLNAEPKVKKKAFVALQAMETDIQSLYQLHLQGHSGDSYSLMTSSSVGLVLPRRGGHPMRLTYFCPPLHLPEGDPKLASGDFTIDQVMRSSYGLSATINLEGSSANKLQTLPTVTLVRDAQTGLEVPTYAQLNQNNSLLMPATFVLRLNKPMPVCLESLKALGLPGLDSVATPPGPPTTVLNLIVQTASKQAIKNTQRGLYVNLPKETHCYFFTDNRKLQGTLVSSLPFTEPAQVPRIVAFLKKQALFYTLLASCVREQQKQYNDMDSTVILEVTAVSFNQITVELQHPYEESLATVDFLLEDGQPTCSVYCLTNEYELLSQKLTRTARKVVSIPMVIYKLLKCWDEEHEFKLHGAIGPGSGSGAIGGGGMSGGGPVSGVGNNFSQFSMDTPTPSDGSLPGGGFANINNLKMDAKSRSLADAFAASTSAAAAIAGLINLKRETDPQSGSSASGTTVSGSSSSSGSAKTSDHDIADKYKNIWKDKTPNLKHCVSITPIPGDGKSGSAGGVSGVEVQRTGGIEIIPLNAQAAIAGGGVTASSSATPTTITITPITGKDPSKDSTKKSTAASAGVGVAAKRPHESSTSSSSTSGCSGSGSSMSSSASSGSSDTQKEKKRKKKRDDSPMGPPEKIYSRQNSPAGGADASATGGVVRKFSSPSSSPKAGGGGQGLMAGVPTARPSPKHSPVYSSPKHNTASNSPKSPFGTHSPKHGSSGKPSMSTLKSAATAATILSPKGDKSSSAVGNTSSGPSASSGSSGATGLVRSFASVGAPPPPPPIPPLASSSGSISSSQSLKKEKTSSASGSSSTSSSATAGVASGGGISPASVAAAVAALKSSQQQMKSVASLSHLAAGGGLGSYAAPSGAGASGAAAVVVGAGAGAGAGASGLELSALRKGMAGGAVSLMTSTAALAPTIPAPTTTVAAGSAASLVSPVSAVVGQGQETAGAAAAATLATATILQQQPQPGAAPTSSCLTTSGGSSDSAGSINPAGASTEYMVKPSSQEGLKLTINKTGSSKSSGTGSGSSSSSGLQAKAKSSSSGATSFAGSTGSTKKQHTGLKPGVNSGPASKKATAAVSSATASSSKHFFQKANSSGNLSSKLSGSGSGGGIPLTKSNSTNSFQEHNAPRRRPSMGALASGSSGGGSGQRKLGSASGGGSGSSGSVSPALSGSMSQPPPRFDHHTDMMTILQYASPTMAASMEGFIKGLHNKFQIPKLSQRGSGGNTTSGRSTPSGSSEPALAGTSSSILGPIASSTGLTEPEAKPPVPPSQSGNEGLLNLSSTAGTPSADGIDEELLASLAGE
B4: Drosophila Sumo (ortholog of the small ubiquitin-like modifier SUMO2) (protein, UniProt O97102 1-90)
chain: MSDEKKGGETEHINLKVLGQDNAVVQFKIKKHTPLRKLMNAYCDRAGLSMQVVRFRFDGQPINENDTPTSLEMEEGDTIEVYQQQTGGAP
B5: TFIID subunit Taf6 (protein, UniProt P49847 1-606)
chain: MSGKPSKPSSPSSSMLYGSSISAESMKVIAESIGVGSLSDDAAKELAEDVSIKLKRIVQDAAKFMNHAKRQKLSVRDIDMSLKVRNVEPQYGFVAKDFIPFRFASGGGRELHFTEDKEIDLGEITSTNSVKIPLDLTLRSHWFVVEGVQPTVPENPPPLSKDSQLLDSVNPVIKMDQGLNKDAAGKPTTGKIHKLKNVETIHVKQLATHELSVEQQLYYKEITEACVGSDEPRRGEALQSLGSDPGLHEMLPRMCTFIAEGVKVNVVQNNLALLIYLMRMVRALLDNPSLFLEKYLHELIPSVMTCIVSKQLCMRPELDNHWALRDFASRLMAQICKNFNTLTNNLQTRVTRIFSKALQNDKTHLSSLYGSIAGLSELGGEVIKVFIIPRLKFISERIEPHLLGTSISNTDKTAAGHIRAMLQKCCPPILRQMRSAPDTAEDYKNDFGFLGPSLCQAVVKVRNAPASSIVTLSSNTINTAPITSAAQTATTIGRVSMPTTQRQGSPGVSSLPQIRAIQANQPAQKFVIVTQNSPQQGQAKVVRRGSSPHSVVLSAASNAASASNSNSSSSGSLLAAAQRSSDNVCVIAGSEAPAVDGITVQSFRAS
B6: Mediator complex subunit MED17 (protein, UniProt Q9VEC1 1-642)
chain: MSNSVNISVETTCENQIREIGYDGTELYQPPPTLSESLAKCAARIDFSKTSLDDLKKEEKSAAAAADEDKDATQFQESLWPWDAVRNKLKDALTEICVLSDVISIAKDKRYLVLDPLLEEADDTKPIVQVYSRKKAISQAAQVLLSGAERLRNAHSEQRNRNVSDFHIELLRLRQNWRLKKVSNAIIGDLSYRTAGSKFGMSGTFEVTKAEETGDEDTASSSNSSSSVSGNNGMQLKASSALRVIVPAELQGVAYIKVITQKDQEDLCTAQLNLMGHGPNITAQVGVWQKTLEFAQNVLFCKELFAQLAREAIQLQAPIPHVVIGNQIRATLLPNIQLIISLCHSTTFDSSQPAPINDHDHVLEHSLHQLLREVHYKNSHHPFPHPASAPLGPTKKRMLAGPMAADRETLLDMTKSQTILEQIIAQAQHIFMRKRTQYVLDTLARDVKDPQIVSHWNAMNSPTMSCVKINIVTHGYDAIGRTSLVIHVKERSLKCICRDGRVMRLSYEPQELRDLILCQINSHQISCLISLARCMSWTVLSNSNHLGIGKVEPLGNASSCLLASPNSDRMIAVQIRCDPQIDVKVYIARSPRQDFFPSPLVPEKLWENLGGTFKEVRFDKIEGKSFLNKMEFLMASLTSNTA
B7: TFIID subunit Taf9 (protein, UniProt Q27272 1-278)
chain: MSAEKSDKAKISAQIKHVPKDAQVIMSILKELNVQEYEPRVVNQLLEFTFRYVTCILDDAKVYANHARKKTIDLDDVRLATEVTLDKSFTGPLERHVLAKVADVRNSMPLPPIKPHCGLRLPPDRYCLTGVNYKLRATNQPKKMTKSAVEGRPLKTVVKPVSSANGPKRPHSVVAKQQVVTIPKPVIKFTTTTTTKTVGSSGGSGGGGGQEVKSESTGAGGDLKMEVDSDAAAVGSIAGASGSGAGSASGGGGGGGSSGVGVAVKREREEEEFEFVTN

The molecules below were run against TurboID-tagged KDM5 (Lysine demethylase 5), N-terminal (NT-KDM5) or C-terminal (CT-KDM5) TurboID fusion (Drosophila melanogaster) (UniProt Q9VMJ7) (assay: proximity labelling; TurboID fused to the N- or C-terminus of KDM5, expressed with Ubi-Gal4 in kdm5^140 null flies; adult heads lysed in RIPA, biotinylated proteins recovered on streptavidin magnetic beads, on-bead trypsin digestion, LC-MS/MS; enrichment over control (kdm5^140;gkdm5:HA) in experiments 1 and 2 and over dCas9:TurboID in experiment 2; nuclear proteins filtered at p < 0.1 across six datasets (high confidence interactors)).

binding | Molecule
binds | Mi-2 (nucleosome remodeler) (from UniProt O97159 1-1982)
binds | female sterile (1) homeotic (fs(1)h), ortholog of the acetyl-histone binding Brd2/Brd4 (from UniProt P13709 1-2038)
binds | Mediator complex subunit MED14 (from UniProt Q9W0P8 1-1553)
binds | Trr/KMT2C (methyltransferase responsible for depositing H3K4me1) (from UniProt Q8IRW8 1-2431) (enzyme)
binds | chromatin assembly factor 1 (Caf1; Caf1-55) (from UniProt Q24572 1-430)
binds | NURF chromatin remodeler component Iswi (from UniProt Q24368 1-1027)
binds | Zmynd8 (acetyl-lysine binding protein) (from UniProt Q7KRS9 1-1664)
binds | C-terminal binding protein (CtBP) transcriptional repressor (from UniProt O46036 1-476)

Biological target: TurboID-tagged KDM5 (Lysine demethylase 5), N-terminal (NT-KDM5) or C-terminal (CT-KDM5) TurboID fusion (Drosophila melanogaster) (UniProt Q9VMJ7)
Test: as above
Remark: another data set of the same source

binding | Molecule
binds | B1
binds | B3
binds | B4
binds | B5
binds | B6
binds | B7

Molecule | binding
B2 | no binding
